These results are taken from publication PMC12231887.

Amino acid sequences for entries named in this document (tags omitted).
UniProt O43474: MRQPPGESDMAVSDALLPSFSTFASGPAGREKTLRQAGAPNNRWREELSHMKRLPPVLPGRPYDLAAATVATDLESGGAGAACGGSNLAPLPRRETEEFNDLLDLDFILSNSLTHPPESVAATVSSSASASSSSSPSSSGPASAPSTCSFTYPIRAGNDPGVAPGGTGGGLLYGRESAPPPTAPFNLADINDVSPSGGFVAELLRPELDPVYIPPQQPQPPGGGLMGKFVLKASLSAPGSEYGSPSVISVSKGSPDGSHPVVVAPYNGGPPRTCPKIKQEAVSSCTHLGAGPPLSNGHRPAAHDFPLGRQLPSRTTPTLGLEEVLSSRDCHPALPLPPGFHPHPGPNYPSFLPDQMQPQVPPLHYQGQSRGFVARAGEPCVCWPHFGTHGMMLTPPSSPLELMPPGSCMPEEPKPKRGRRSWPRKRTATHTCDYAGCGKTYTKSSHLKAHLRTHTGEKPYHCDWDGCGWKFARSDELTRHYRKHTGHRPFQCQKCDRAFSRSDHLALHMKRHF

No constants are given. Whether binding was seen depends on the method and setting. Binding seen in cells or lysates may run through a third protein. Some entries that bind do so weakly or less than the wild type. For some of these results: Tags and fused reporters may be left off the sequences shown.

The target in assay [1] is T1, Flag-tagged ANGPTL4 (Angiopoietin-like 4) (human) (UniProt Q9BY76).
T1 sequence: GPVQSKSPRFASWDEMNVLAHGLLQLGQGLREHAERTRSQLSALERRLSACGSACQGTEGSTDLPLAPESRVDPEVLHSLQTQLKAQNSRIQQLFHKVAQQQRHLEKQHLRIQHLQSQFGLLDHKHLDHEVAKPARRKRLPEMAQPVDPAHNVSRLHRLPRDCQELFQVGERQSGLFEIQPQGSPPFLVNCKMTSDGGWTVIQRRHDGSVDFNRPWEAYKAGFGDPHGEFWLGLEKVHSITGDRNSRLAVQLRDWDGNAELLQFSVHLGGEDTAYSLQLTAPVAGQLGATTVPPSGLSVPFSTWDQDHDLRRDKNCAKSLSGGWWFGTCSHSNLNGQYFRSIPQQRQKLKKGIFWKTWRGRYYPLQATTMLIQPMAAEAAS
Briefly: co-IP; 293T cells transfected with Flag-ANGPTL4 and HA-KLF4; reciprocal immunoprecipitation; NP-40 lysis buffer (20 mM Tris-HCl pH 7.5, 150 mM NaCl, 1.5 mM MgCl2, 2 mM EDTA, 0.5% NP-40), primary antibody overnight at 4 °C, protein A/G agarose, immunoblot. A general note: A western blot detects proteins with antibodies after separation by electrophoresis.

The next assay has as its target HA-tagged KLF4 (UniProt O43474). The assay is described as above.
For assay [2], the target named is KLF4, endogenous in TNBC cells (human (endogenous in MDA-MB-468 and MDA-MB-231)) (UniProt O43474). The assay is described as follows: co-IP; lysates of TNBC cells: MDA-MB-468 with ANGPTL4 overexpression, MDA-MB-231 with KLF4 knock-down; NP-40 lysis buffer, primary antibody overnight at 4 °C, protein A/G agarose, immunoblot; the precipitating antibody is not stated.

Regarding “HA-tagged KLF4 (from UniProt O43474 1-513)”, in assay [1], the binding entry was “binds”.

B1: Flag-tagged ANGPTL4 (Angiopoietin-like 4) (protein, UniProt Q9BY76 26-406)
chain: T1 sequence
Regarding B1, in the assay with HA-tagged KLF4, the binding result was “binds”.

B2: ANGPTL4, endogenous in MDA-MB-231 cells (protein, UniProt Q9BY76 26-406)
chain: T1 sequence
B2: the binding result in assay [2] is listed as “binds”.

B3: ANGPTL4 overexpressed in MDA-MB-468 cells (protein, UniProt Q9BY76 26-406)
chain: T1 sequence
With B3, the binding result in assay [2] is reported as “binds”.
